The results in this text go back to PubChem BioAssay AID1508600 (Functional Genomics Laboratory (NCATS/FGL), 2020).

Hit rate of the full screen: of about 53,000 sequences, about 3,700 (7%) were called active.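 The calls were made as follows: active = gene knockdowns whose robust z-score for IL-1 alpha signal is at least 2 or at most -2, so actives lie on both sides; inactive = the rest.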 This is one part of the list.

A short description of this test: Components of the Cytosolic LPS Sensing Pathway: Gene Identification via Genome-wide siRNA Screen.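 Also: robust z of the log signal after scaling to non-targeting control siRNA wells of the plate.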 The conditions noted are these: RAW264.7 macrophages, IL-1a HTRF, actives lie on both sides, screened at 100 nM (by protocol), cells primed 5 h with Pam3CSK4 first. Summed up:
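RAW264.7 mouse macrophages reverse-transfected with single siRNAs (100 nM final) for 48h, primed with Pam3CSK4 for 5 hours, then transfected with LipidA for 24 hour. Supernatant IL-1a read by HTRF; values normalized to negative-control median, log-transformed robust z-scores.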
In general terms: In TR-FRET formats the signal depends on donor and acceptor labels being close together.
GGCCCUGGUAGCUUAUUACTT against Rps16: the z-score was inactive: 0.762.
The value for GGAAGACUUUAUGUGCACCTT against Tbx4 was inactive: -0.145; that for GGCUUUACACUGCUAGCUCTT against Fbxl2 was inactive: -0.0512; that for GGCUAUUUCGAUGCUCUGGTT against Baiap2 was inactive: -1.05.
In the case of GGCUAUCACAGGGAUCCUATT against Ppl it was inactive: -0.739; in that of GGCGGUGUUUUACUACAAGTT against Capn7, active: 3.99; in that of GCUCCAGCUUGCACUCUUGTT against Trp53i13, inactive: 1.36.
Consider GCUACGUUCAGUUCCAUUGTT against Eddm3b, for which the z-score was inactive: -0.321.
In the case of GGAGAAUUAGAAGUUUCUGTT against Ccdc40 it was inactive: -0.252; in that of GCAGUACUAAGGAAGAUAUTT against Nudcd1, inactive: -0.842; in that of GGAUUCCGUGCAUUUGUGATT against Atad3a, inactive: -0.113.
As for GGAGAGCUCUGGAAGCUUUTT against Ppara, the z-score is inactive: 0.913.
In the case of CCACCUUGGUCUAAUUUCUTT against Slitrk4 it was active: -2.06; in that of GCGGAAGGCACAGAUAGAATT against Ift74, inactive: 0.67; in that of GGCAAAAGCACUGAAGAGATT against Ar, inactive: -0.63.
The value for GCUUGAUGAGAAAUCAACUTT against Map2 was inactive: 0.345.
In the case of CGUGGACUUAAUAUUUCAGTT against Btbd7, the z-score was inactive: 0.685.
The value for GGACACAGCAAGAAGAUACTT against Wfdc12 was inactive: -1.79.
For the sequence UGCAAAGAUUGUCUCCUCCTT against Olfr255, the z-score was inactive: -0.0738.
The value for GCUCAAUUCUGCAAGACAUTT against Olfr543 was inactive: 1.44; that for CCUGUUGAGUACUGUGCUGTT against Olfr987 was inactive: -0.437; that for GGAUCUGUGACUUUAACUUTT against Gm5105 was inactive: 0.252.
The value for GGAGCAACUACAAACAUCUTT against Acss2 was active: 2.35.
In the case of CGUACCACGGAGGACUUAUTT against Dpf3 it was inactive: -1.35.
Regarding GGAGAUUGUGCGCCGUAACTT against Casr, the z-score is inactive: 0.262.
In the case of CCCUGGGCAGUUUGCAUGUTT against Dgcr2 it was inactive: 0.815.
Take AACCUCUCCUUCUUAGACATT against Olfr724: the z-score is inactive: 0.814.
In the case of GGUUGGCAAGUCCUUUUGUTT against Zfp759 it was inactive: -1.82.
GGUGACUUGCUUUAGAAAATT against Tnfaip8l1: the z-score is inactive: 0.184.
In the case of GGGAGUAUGAUUUUGAGGATT against Iffo1 it was inactive: 0.303; in that of GCGCAGUAUCCACUUCAAUTT against Pcsk7, inactive: -0.435.
In the case of GGAAAUCCUGGGACAGAACTT against Htatip2 it was active: -2.42; in that of GGCCAAAUACUGAAUAUUCTT against Ssb, inactive: 0.065.
In the case of GGGCUCUGCGCUACUUAAATT against Zfp358 it was inactive: -0.643.
As for GCAACAUUCCAGGGCUGAATT against Dnmt3l, the z-score was inactive: 0.229.
The value for GGAGCUCUGAGGCUUAUAGTT against Prop1 was inactive: -1.32; that for GGGAAGCAGUAUUUAAUCATT against Hc was inactive: 1.25; that for GGAAAAGCCGCACUUUAUATT against Mier2 was inactive: 1.01.
For GCUACCACUUCUUUAAUAATT against Cdc73, the z-score is inactive: -1.6.
The value for GGAGAUAAUUCAUUAUGGCTT against Zfpm2 was inactive: 0.28; that for GGUCAAAGUUGGAAAUUGCTT against Acbd6 was inactive: 1.33.
In the case of GGAGUUGUGGAAUUCUCUATT against Extl2 it was inactive: -1.3; in that of GCUAAAGCUAAGAUUGAAGTT against Poli, inactive: -0.0266; in that of GGAACUACAACAGAAACGATT against Cep131, inactive: -1.42.
The value for GCCAUCAAAGAAUAUGUUUTT against Sf3b3 was inactive: -1.57.
On to GGAUCUAAGGUGAACAAGATT against Rpl3, for which the z-score is inactive: 0.472.
The value for GCAAUCUUUUAUACGUGCCTT against Cmtm1 was inactive: -1.29.
Take GGUGGGAAGAGGAAUACACTT against Iffo1: the z-score was active: 4.73.
In the case of GGUUUUUGAGUGGGAGACCTT against Khdc3 it was inactive: -0.578.
In the case of GGGAUUUUGUCAUCUAUUCTT against Btf3l4 it was inactive: 0.401; in that of GGCACUUUUUGGAAAAAACTT against Mkrn1, inactive: -1.78; in that of GUAUUUGGGACUGAAUUGCTT against Maf, inactive: 0.643.
In the case of CCAAAUGCAACAAAGGUAATT against Maob it was inactive: -0.545.
On to GGACUGGUCAGAGAUGGAUTT against Pced1a, for which the z-score is active: 5.33.
The value for GGGUGUAGUUUUUGAGGAGTT against Pprc1 was inactive: 0.708; that for GCAUCCUGGCUUAUCCAUUTT against Hmgb1 was inactive: -0.393.
The value for GGUAAAUGUGAAUGUAAGGTT against Ntn4 was inactive: 0.73; that for CCCUGAUUAAUGGUUCUAUTT against Sorl1 was inactive: 1.7.
In the case of GCUUCACUCUCUUCUUUGCTT against Olfr1463 it was active: -3.05; in that of GGAGGAAGCUGAACUCUGGTT against Ehmt2, inactive: -0.655; in that of “CCCUAGCCAUAUGGAAUAUTT against 9130230L23Rik”, inactive: 0.145.
In the case of GGAAGAGGUUGAGAUCCAATT against Pogk, the z-score is inactive: -0.655.
In the case of GGAUGCCUUGAAGAAAUUATT against Olfr1044 it was inactive: 1.34; in that of GGAUUUUUCUAAUCGCUUGTT against Zfp646, inactive: 0.343.
The value for GGAAGUUGACAAAAUAGUGTT against Dlgap5 was inactive: 0.389.
In the case of GGAAGGACUGAGGUAUCAUTT against Gtf2f2 it was inactive: 0.595; in that of GCAGUGACCUGCCACUGAATT against Cd79b, inactive: 0.741; in that of GGAUUCUGCUAGCAGUUCATT against Csn1s2a, inactive: -0.477.
As to GGAAUAUUGAUGUUUCAACTT against Ncaph, the z-score was inactive: 0.553.
The value for GGAAUGGAACUUGUCUGGGTT against Gpr37 was inactive: -0.123; that for GGAACGAGAAAUGAUCCAGTT against Ap1g1 was inactive: 0.221.
In the case of GCGGAGGUUUCCUCCUUAATT against Fem1c, the z-score is inactive: 0.8.
In the case of GGGAAAGAAAGUGAUUGUCTT against Hsd11b1 it was inactive: 0.353; in that of GGCUAGCAAAUCCUACUGGTT against Mpl, inactive: -1.51; in that of GGGUUUCUGUUAAUCCACATT against H3c8, inactive: -1.38.
As to GGCAAGGAAUCAAUGUCUCTT against Fscn2, the z-score was inactive: -0.229.
As for CGGAACCUUAUUUAAAACUTT against Sirt5, the z-score is inactive: 0.732.
The value for GGAGGAAGAGGAGUAAAGGTT against Hoxa7 was inactive: 0.052; that for GCUUACUUCCAAGGUCUACTT against Ptch2 was inactive: 0.905.
The value for GGCCUUUAACUUGUAAAUATT against Hlx was inactive: -0.485; that for GGGCUCUAGCUAAAAACGATT against Med10 was inactive: 1.23; that for GGAAGAAAAACAACCAAGUTT against Elovl4 was inactive: 0.6.
In the case of GCCGGCAUCAGCUGAUUUCTT against Igbp1 it was inactive: 0.382.
With GGCACAUGAGACAGCUUUUTT against Tmem160, the z-score is inactive: 0.0311.
The value for GGAUCAGUCAUUUCUCUGCTT against Aox3 was inactive: 0.0347; that for GGAUAUCGUUUUCCUUGUATT against Retn was inactive: -0.111; that for GGAGAAAAUUGAACUGAAATT against Cacna1c was inactive: 1.06.
In the case of “GCCAUUUGAAGGCUUUUGUTT against D130079A08Rik” it was inactive: -0.555.
The value for GCUAGUUUCCGUCGCUUUGTT against Cpeb4 was inactive: 0.555.
As to GGACAGUUCGUGUUUGGUUTT against Wdfy2, the z-score was inactive: 0.0956.
The value for GGGCAAACUCACAUCUAAATT against Nsun5 was inactive: -0.267; that for CGGUAGAGUGCUUACGCAATT against Camk2g was inactive: 0.869.
The value for GGACAUGGAUCAAAGUUCATT against Zfp40 was inactive: -0.645; that for GCCUAUGGGAUUCGAAUUGTT against P2rx2 was inactive: -0.484.
For CGCGUCAUUAUGAAAUGUUTT against Tmem163, the z-score was inactive: 0.491.
The value for GAAAAAAUCUAUCUACCCUTT against Hoxb4 was inactive: -0.219; that for GGCCAUGAGGAAAACAAGATT against Coro7 was inactive: -1.01.
In the case of CCGCUCAGUUCAUCUCAAATT against Snx15 it was inactive: -0.0551.
GAACUACUACCGCUUAGCATT against Mrs2: the z-score is inactive: 0.298.
In the case of GCUAUGUUCUUGGAUGAUUTT against Vmn1r47 it was inactive: -1.58.
As for CCCAAAGAAUUAUGAGUGUTT against Gpr149, the z-score was inactive: -0.678.
Take GGGUAGUUUAUUUCUUUGCTT against Mlh3: the z-score was inactive: 0.826.
For the sequence GGACUUCCAGAGGUACUUGTT against Vmn1r229, the z-score was inactive: -1.58.
In the case of GGGACAAGCCAGAAACAACTT against Col19a1 it was inactive: 0.0299; in that of CCAAGCUUGACCCUACACUTT against Olfr1121, inactive: -0.911.
In the case of CCGUGUGACAUUUGAGUAUTT against Crhbp it was inactive: 1.42; in that of GGCCAUCAGAAGCAAGAUUTT against Akr1c21, inactive: -0.139.
